# Primary screen of a compound library

Each number is a percent effect as filed.
How 0% and 100% were set is not recorded. Most values in the screen are low, and negative values occur.
This is an unselected part of the compounds tested.
Two or more numbers in one place are separate tests of the same structure; such repeats can differ widely.

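Whole-cell growth test on Mycobacterium tuberculosis, read after 3 days in glucose-containing 7H9 medium; the read-out is not stated. Tested at 50 µM. The record gives no direction; compounds that gave an IC50 in retests scored well above the rest, so higher reads as more growth inhibition. Of about 69,000 compounds tested this way, about 760 (1.1%) reached 50% or more in at least one test.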

Compound	effect
CCC(NC(=O)C1CCN(S(C)(=O)=O)CC1)c1ccc(OC)cc1 (stereo not given)	-14.59%
O=C(Nc1ccc(Br)cc1F)c1ccc(N2CCCCC2)nn1	-7.794%
Cc1nc(NC2CCCC2)c2c(n1)c(C)nn2C	7.786% and 13.04%
[H][C@]12CCCN(S(=O)(=O)c3cccc(F)c3)[C@@]1([H])CN(C(=O)C1CC1)C2	2.908%
O=c1[nH]nc(SCC2CCCO2)n1C1CC1 (stereo not given)	-15.23%
Cc1ccc(-c2nc3cc(S(=O)(=O)N4CCCC4)ccc3n2C)o1	-2.333%
Cn1cc(-c2nnn3c2COC(CNCc2ccccn2)C3)cn1 (stereo not given)	-31.2%
O=C(Nc1cn[nH]c1)N(CCO)C1CCc2ccccc21 (stereo not given)	21.55%
Cc1cc(C)n(CC2CCCN2CC(=O)NC2CCOCC2)n1 (stereo not given)	10.18%
CCCNC(=O)c1cc(C(C)C)nc(N2CCCC2)n1	93.74%
COc1ccc(CN2CCC(C(N)=O)C2)c(Br)c1OC (stereo not given)	-4.458% and -14.44%
Cc1ccc2nc(C(=O)N3C[C@@H](C(=O)O)[C@H](c4cccnc4)C3)cn2c1	8.564%
Cc1nn(C)c(N2CCOCC2)c1CNC1CCC(O)CC1 (stereo not given)	8.068%
CC(=O)N1CCN(C(=O)NCc2ccccc2Cn2ccnc2)CC1	-3.985%
Cc1noc(C(C)C)c1C(=O)NCc1cccnc1	13.44%
COCCN1CCc2ncnc(-c3ccccc3)c2CC1.O=C(O)C(F)(F)F	11.44%
COCC1CN(S(=O)(=O)C2CC2)Cc2ncn(CC3CC3)c21 (stereo not given)	-12.55%
CN1CCN2CCN(Cc3cc(=O)n4c5c(cccc35)CCC4)CC2C1 (stereo not given)	-4.432% and -19.76%
O=C(c1ccnc(NC2CC2)c1)N1CCCC1c1cccc(Br)c1 (stereo not given)	-24.52%
COc1ccc(F)cc1C(=O)N1CCCC(n2nc(C)nc2C)C1 (stereo not given)	6.484%
COCCCNC(=O)Nc1ncc(-c2cccc(OC)c2)n1CCOC	1.095%
Cc1cc(C)nc(C2CCCNC2)n1.Cl.Cl (stereo not given)	-48.43%
N#CCCNC(=O)CSc1cc(F)ccc1F	-18.07%
COc1ccc(C)cc1NC(=O)Nc1cnc(N2CCCC2)nc1	15.93%
CN(C)Cc1ccc(C2CCCCN2C(=O)c2cc(C3CC3)n[nH]2)cc1 (stereo not given)	-3.281%
Cc1cccc(C)c1Nc1noc2c1CN(C(=O)c1c[nH]nc1C)CC2	-30.81%
COc1ccc(Cl)cc1S(=O)(=O)N(C)CC(N)=O	30.32%
Cc1ccc(CN2CCC3(CCC(=O)N3CC(=O)N(C)C)CC2)s1.O=C(O)C(F)(F)F	11.97%
CC(C)c1nc(C2CCCN2Cc2ccccc2C#N)no1 (stereo not given)	31.97%
Cc1cc(CN2CCCC2c2c(C)nn(C)c2Cl)on1 (stereo not given)	28.01%
COCc1ncc(CN2CC(Oc3c(C)cccc3C)C2)cn1	37.94%
CC1CCCN(Cc2cccc(C(=O)Nc3nccs3)c2)C1 (stereo not given)	-19.92%
CC(C)Cc1cc(NC(=O)c2n[nH]c3ccccc23)n(C)n1	24.46%
CSc1ccc(CNC2CCN(CCc3ccncc3)CC2)cc1	0.4742%
Cc1ccsc1CN(C)C(=O)Cn1nc(-c2ccc(F)cc2)oc1=O	-8.171% and -2.941%
C[S+]([O-])c1nncn1CC(=O)c1ccc2c(c1)CCC2 (stereo not given)	-17.29% and -5.351%
N#Cc1cc(N2CCC(CS(N)(=O)=O)CC2)c2ccccc2n1	-4.091%
Cc1cccc2c1OCCC2NCc1c(C(C)C)nn(C)c1N(C)C (stereo not given)	7.832%
COc1cccc2c1N(S(=O)(=O)c1cc(C(=O)O)cs1)CCC2	-23.31%
CCN(C)S(=O)(=O)N1CCC(C(O)c2ccc(F)cc2)CC1 (stereo not given)	-18.61% and 13.17%
CCn1ccc(C(=O)N2CCCN(Cc3ccccc3F)CC2)cc1=O	-39.07%
COCC1CN(C(=O)c2ccnnc2)Cc2ncnn2C1 (stereo not given)	2.99% and 3.265%
CCc1noc(C)c1C(=O)N1CCN(c2nc(C)cc(OC)n2)CC1	-5.949% and 6.046%
CC(C)C1CCC(N2CCN(CCS(C)(=O)=O)CC2)CC1 (stereo not given)	-7.143%
COc1ccc(-c2noc(C3=NN(C)C(=O)CC3)n2)cc1OC	-13.59%

Some entries from above, unchanged:

COc1ccc(CN2CCC(C(N)=O)C2)c(Br)c1OC (stereo not given) gave -4.458% and -14.44%.
CC1CCCN(Cc2cccc(C(=O)Nc3nccs3)c2)C1 (stereo not given) gave -19.92%.
CN1CCN2CCN(Cc3cc(=O)n4c5c(cccc35)CCC4)CC2C1 (stereo not given) gave -4.432% and -19.76%.
COc1ccc(Cl)cc1S(=O)(=O)N(C)CC(N)=O gave 30.32%.

The values are deposited in ChEMBL (CHEMBL3988442, “University of Dundee, Small-Polar-MMV Screening Library” (2021)).